Measurements reported in PubChem BioAssay AID504774 (Drosophila RNAi Screening Center, 2011).
The screen tested about 23,000 reagents; shown is a random part of those with a known target gene and a result. 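Values are quantile-normalised luminescence on an arbitrary scale; higher means more cells surviving MMS.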 The numbers tell different reagents against one gene apart. Names joined by + are all predicted targets of the reagent. Not all columns of the deposit are shown.

Purpose: 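Genes required for cells to withstand methyl methanesulphonate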 (primary screen)
System: Drosophila Kc167 cells
Knock-down reagent: long dsRNA against Drosophila genes, about 0.25 µg dsRNA per well
Duration: about 6 days: 3 days knock-down, then 3 days with or without MMS
Challenge: methyl methanesulphonate 0.004% (w/v) for 3 days after knock-down
Measured: 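ATP-dependent luminescence as a measure of live cells in MMS-exposed wells, quantile normalised within each plate, with replicate values also given as a mean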
Reading the numbers: mean viability with MMS: higher = more surviving cells after MMS

Target gene	reagent no.	mean viability with MMS
CG30398	1	3.45e6
flz	1	3.60e6
prd	1	3.73e6
Cdc27	1	3.16e6
CG15629	1	3.59e6
Spn27A	1	3.58e6
Prp19	1	3.42e6
Tsp42A	1	3.49e6
CG11127	1	2.85e6
CG17760	1	3.88e6
Cad96Ca	1	3.59e6
Cad96Ca	2	3.64e6
Gr64c	1	3.52e6
myo	1	3.59e6
CG13258	1	3.39e6
CG5359	1	3.37e6
CG4238	1	3.46e6
CG4238	2	3.51e6
mat	1	3.51e6
mat	2	3.46e6
fs(1)N	1	3.47e6
Mlp60A	1	3.46e6
Mlp60A	2	3.23e6
Mlp60A	3	3.63e6
CG4617	1	3.44e6
Tpr2	1	3.78e6
DIP-alpha	1	1.81e6
DIP-alpha	2	3.11e6
DIP-alpha	3	3.60e6
be	1	3.56e6
be	2	3.70e6
be	3	3.56e6
Tsen54	1	3.86e6
CG18335	1	3.51e6
CG34328	1	3.40e6
CG11964	1	3.56e6
Madm	1	3.55e6
CG12540	1	3.71e6
CG7546	1	3.58e6
CG7546	2	3.55e6
CG7546	3	3.55e6
Pgam5-2	1	3.53e6
CG12594	1	3.74e6
CG8321	1	3.76e6
CG31380	1	3.81e6
Ir75b	1	3.63e6
CG13305	1	3.27e6
CG13933	1	3.46e6
Roc1b + Cdc5	1	3.34e6
skd	1	3.40e6
CG34155	1	3.42e6
CG31551	1	3.78e6
CG31551	2	3.78e6
Acsf3	1	3.68e6
CG14567	1	3.61e6
CG5543	1	3.39e6
Sec61gamma	1	3.44e6
LRR	1	3.45e6
CG31525	1	3.40e6
CG18787 + CG18789	1	3.24e6
robo2	1	3.52e6
robo2	2	3.42e6
robo2	3	3.54e6
robo2	4	3.53e6
CG17625	1	3.62e6
CG34135 + Nasp	1	3.33e6
orb2	1	3.58e6
orb2	2	3.53e6
orb2	3	3.52e6

3 entries already listed, ordered by “mean viability with MMS”, highest first:
Target gene	reagent no.	mean viability with MMS
LRR	1	3.45e6
CG31525	1	3.40e6
CG18787 + CG18789	1	3.24e6
